Data taken from PMC4696740.

B1: Arabidopsis ABF2 (protein, UniProt Q9M7Q4 1-416)
chain: MDGSMNLGNEPPGDGGGGGGLTRQGSIYSLTFDEFQSSVGKDFGSMNMDELLKNIWSAEETQAMASGVVPVLGGGQEGLQLQRQGSLTLPRTLSQKTVDQVWKDLSKVGSSGVGGSNLSQVAQAQSQSQSQRQQTLGEVTLEEFLVRAGVVREEAQVAARAQIAENNKGGYFGNDANTGFSVEFQQPSPRVVAAGVMGNLGAETANSLQVQGSSLPLNVNGARTTYQQSQQQQPIMPKQPGFGYGTQMGQLNSPGIRGGGLVGLGDQSLTNNVGFVQGASAAIPGALGVGAVSPVTPLSSEGIGKSNGDSSSLSPSPYMFNGGVRGRKSGTVEKVVERRQRRMIKNRESAARSRARKQAYTVELEAEVAKLKEENDELQRKQARIMEMQKNQETEMRNLLQGGPKKKLRRTESGPW
B2: Arabidopsis ABI5 (protein, UniProt Q9SJN0 1-442)
chain: MVTRETKLTSEREVESSMAQARHNGGGGGENHPFTSLGRQSSIYSLTLDEFQHALCENGKNFGSMNMDEFLVSIWNAEENNNNQQQAAAAAGSHSVPANHNGFNNNNNNGGEGGVGVFSGGSRGNEDANNKRGIANESSLPRQGSLTLPAPLCRKTVDEVWSEIHRGGGSGNGGDSNGRSSSSNGQNNAQNGGETAARQPTFGEMTLEDFLVKAGVVREHPTNPKPNPNPNQNQNPSSVIPAAAQQQLYGVFQGTGDPSFPGQAMGVGDPSGYAKRTGGGGYQQAPPVQAGVCYGGGVGFGAGGQQMGMVGPLSPVSSDGLGHGQVDNIGGQYGVDMGGLRGRKRVVDGPVEKVVERRQRRMIKNRESAARSRARKQAYTVELEAELNQLKEENAQLKHALAELERKRKQQYFESLKSRAQPKLPKSNGRLRTLMRNPSCPL
B3: Arabidopsis ABF4 (protein, UniProt Q9M7Q2 1-431)
chain: MGTHINFNNLGGGGHPGGEGSSNQMKPTGSVMPLARQSSVYSLTFDELQNTLGGPGKDFGSMNMDELLKSIWTAEEAQAMAMTSAPAATAVAQPGAGIPPPGGNLQRQGSLTLPRTISQKTVDEVWKCLITKDGNMEGSSGGGGESNVPPGRQQTLGEMTLEEFLFRAGVVREDNCVQQMGQVNGNNNNGFYGNSTAAGGLGFGFGQPNQNSITFNGTNDSMILNQPPGLGLKMGGTMQQQQQQQQLLQQQQQQMQQLNQPHPQQRLPQTIFPKQANVAFSAPVNITNKGFAGAANNSINNNNGLASYGGTGVTVAATSPGTSSAENNSLSPVPYVLNRGRRSNTGLEKVIERRQRRMIKNRESAARSRARKQAYTLELEAEIEKLKKTNQELQKKQAEMVEMQKNELKETSKRPWGSKRQCLRRTLTGPW
B4: Arabidopsis ABF1 (protein, UniProt Q9M7Q5 1-392)
chain: MGTHIDINNLGGDTSRGNESKPLARQSSLYSLTFDELQSTLGEPGKDFGSMNMDELLKNIWTAEDTQAFMTTTSSVAAPGPSGFVPGGNGLQRQGSLTLPRTLSQKTVDEVWKYLNSKEGSNGNTGTDALERQQTLGEMTLEDFLLRAGVVKEDNTQQNENSSSGFYANNGAAGLEFGFGQPNQNSISFNGNNSSMIMNQAPGLGLKVGGTMQQQQQPHQQQLQQPHQRLPPTIFPKQANVTFAAPVNMVNRGLFETSADGPANSNMGGAGGTVTATSPGTSSAENNTWSSPVPYVFGRGRRSNTGLEKVVERRQKRMIKNRESAARSRARKQAYTLELEAEIESLKLVNQDLQKKQAEIMKTHNSELKEFSKQPPLLAKRQCLRRTLTGPW
B5: Arabidopsis ABF3 (protein, UniProt Q9M7Q3 1-454)
chain: MGSRLNFKSFVDGVSEQQPTVGTSLPLTRQNSVFSLTFDEFQNSWGGGIGKDFGSMNMDELLKNIWTAEESHSMMGNNTSYTNISNGNSGNTVINGGGNNIGGLAVGVGGESGGFFTGGSLQRQGSLTLPRTISQKRVDDVWKELMKEDDIGNGVVNGGTSGIPQRQQTLGEMTLEEFLVRAGVVREEPQPVESVTNFNGGFYGFGSNGGLGTASNGFVANQPQDLSGNGVAVRQDLLTAQTQPLQMQQPQMVQQPQMVQQPQQLIQTQERPFPKQTTIAFSNTVDVVNRSQPATQCQEVKPSILGIHNHPMNNNLLQAVDFKTGVTVAAVSPGSQMSPDLTPKSALDASLSPVPYMFGRVRKTGAVLEKVIERRQKRMIKNRESAARSRARKQAYTMELEAEIAQLKELNEELQKKQVEIMEKQKNQLLEPLRQPWGMGCKRQCLRRTLTGPW

The binders below were run against Glycine soja 14-3-3 protein GsGF14o (Glycine soja) (assay: two-hybrid; GsGF14o fused to the GAL4 DNA-binding domain (pGBKT7) as bait, AREB/ABFs at the C-terminus of the GAL4 activating domain (pGADT7); yeast strain AH109; serial dilutions on SD/-Trp-Leu, SD/-Trp-Leu-His and SD/-Trp-Leu-His-Ade medium).

binding | Binder
binds | B1
binds | B2
binds | B3
binds | B4
binds | B5

Results are given in words; binding and its absence hold for the method and conditions named. Binding can be weak; no strength is given.
